Source: publication doi:10.1101/2021.02.11.430699
Numbering of substitutions follows the chain as printed. No constants are given. Whether binding was seen depends on the method and setting. Binding calls can cover weak binding; strength is not graded here. Tags and fused reporters may be left off the sequences shown.

Key:
Assay in all cases: two-hybrid
[1] = biological target: T1, Pol31 wild type, LexA bait fusion (S. cerevisiae) (UniProt P46957)
T1 sequence: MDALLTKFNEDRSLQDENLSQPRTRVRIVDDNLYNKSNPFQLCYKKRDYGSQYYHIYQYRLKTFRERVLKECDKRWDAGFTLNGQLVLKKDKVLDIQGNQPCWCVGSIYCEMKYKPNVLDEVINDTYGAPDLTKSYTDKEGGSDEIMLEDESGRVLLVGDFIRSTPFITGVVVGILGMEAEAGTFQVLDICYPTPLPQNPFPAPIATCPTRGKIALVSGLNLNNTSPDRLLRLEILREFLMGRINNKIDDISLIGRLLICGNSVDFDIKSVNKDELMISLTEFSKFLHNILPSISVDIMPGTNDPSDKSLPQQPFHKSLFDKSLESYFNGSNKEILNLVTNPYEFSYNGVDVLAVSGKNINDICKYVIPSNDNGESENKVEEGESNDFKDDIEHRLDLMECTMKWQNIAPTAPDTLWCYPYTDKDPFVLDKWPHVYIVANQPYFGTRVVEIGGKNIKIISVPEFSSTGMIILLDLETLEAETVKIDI

[2] = biological target: T2, Pol31-W417A, LexA bait fusion (S. cerevisiae) (UniProt P46957)
T2 sequence: T1 sequence with W417A

[3] = biological target: T3, Pol31-T415A, LexA bait fusion (S. cerevisiae) (UniProt P46957)
T3 sequence: T1 sequence with T415A

Measured: binding

Pol32 N-terminus, B42 prey fusion (S. cerevisiae) (domain or fragment)
binds: all assays above
